Source: the supplement of paper PMC10849652
Some of the results follow.

Sequences of proteins named here, by UniProt entry; tags and fusion partners are left off. A change or cut given only in a name is not applied to a line headed by its entry.
UniProt P57737: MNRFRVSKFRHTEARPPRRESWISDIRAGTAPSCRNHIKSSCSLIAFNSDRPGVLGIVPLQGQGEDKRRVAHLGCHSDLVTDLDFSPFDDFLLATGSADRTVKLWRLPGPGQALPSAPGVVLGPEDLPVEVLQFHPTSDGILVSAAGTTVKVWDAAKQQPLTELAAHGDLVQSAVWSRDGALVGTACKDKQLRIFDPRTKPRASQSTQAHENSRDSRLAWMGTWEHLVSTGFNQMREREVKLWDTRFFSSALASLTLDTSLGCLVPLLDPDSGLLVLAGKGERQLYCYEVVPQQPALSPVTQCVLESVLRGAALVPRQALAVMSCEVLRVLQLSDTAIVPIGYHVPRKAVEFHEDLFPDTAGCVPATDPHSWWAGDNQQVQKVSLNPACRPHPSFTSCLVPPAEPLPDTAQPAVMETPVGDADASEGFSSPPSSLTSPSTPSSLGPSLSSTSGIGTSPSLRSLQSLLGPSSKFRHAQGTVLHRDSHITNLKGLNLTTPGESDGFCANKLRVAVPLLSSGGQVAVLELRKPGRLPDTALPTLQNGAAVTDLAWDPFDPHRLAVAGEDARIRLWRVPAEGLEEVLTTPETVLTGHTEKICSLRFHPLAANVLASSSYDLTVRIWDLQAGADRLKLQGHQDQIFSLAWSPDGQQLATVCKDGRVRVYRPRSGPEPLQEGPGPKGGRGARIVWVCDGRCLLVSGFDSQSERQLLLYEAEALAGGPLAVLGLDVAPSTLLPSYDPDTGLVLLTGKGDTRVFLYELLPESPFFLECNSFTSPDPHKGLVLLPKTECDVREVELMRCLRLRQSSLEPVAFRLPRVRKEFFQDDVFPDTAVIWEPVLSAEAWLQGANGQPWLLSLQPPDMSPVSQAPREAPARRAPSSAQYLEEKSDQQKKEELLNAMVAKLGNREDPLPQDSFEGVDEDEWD
UniProt P53674: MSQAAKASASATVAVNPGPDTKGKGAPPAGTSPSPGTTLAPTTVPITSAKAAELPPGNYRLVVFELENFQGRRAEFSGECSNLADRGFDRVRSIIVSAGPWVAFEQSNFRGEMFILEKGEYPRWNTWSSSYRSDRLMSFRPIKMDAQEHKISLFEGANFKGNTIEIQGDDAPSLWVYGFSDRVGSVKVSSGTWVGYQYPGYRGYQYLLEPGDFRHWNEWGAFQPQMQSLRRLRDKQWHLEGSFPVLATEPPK
UniProt P24311, whole entry, looked up: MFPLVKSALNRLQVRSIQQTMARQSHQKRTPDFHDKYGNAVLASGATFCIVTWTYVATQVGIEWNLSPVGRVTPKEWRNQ
UniProt Q96H96: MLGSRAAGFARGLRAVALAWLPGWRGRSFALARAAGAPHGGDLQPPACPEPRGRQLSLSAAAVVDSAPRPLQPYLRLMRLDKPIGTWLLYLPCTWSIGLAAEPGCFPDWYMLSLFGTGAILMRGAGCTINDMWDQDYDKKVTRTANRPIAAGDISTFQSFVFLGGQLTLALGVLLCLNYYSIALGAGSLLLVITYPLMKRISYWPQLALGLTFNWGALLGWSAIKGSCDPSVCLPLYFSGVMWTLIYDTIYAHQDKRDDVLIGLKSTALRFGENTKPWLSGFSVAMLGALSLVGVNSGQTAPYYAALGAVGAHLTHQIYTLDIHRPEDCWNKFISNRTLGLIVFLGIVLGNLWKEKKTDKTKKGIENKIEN
UniProt O75390: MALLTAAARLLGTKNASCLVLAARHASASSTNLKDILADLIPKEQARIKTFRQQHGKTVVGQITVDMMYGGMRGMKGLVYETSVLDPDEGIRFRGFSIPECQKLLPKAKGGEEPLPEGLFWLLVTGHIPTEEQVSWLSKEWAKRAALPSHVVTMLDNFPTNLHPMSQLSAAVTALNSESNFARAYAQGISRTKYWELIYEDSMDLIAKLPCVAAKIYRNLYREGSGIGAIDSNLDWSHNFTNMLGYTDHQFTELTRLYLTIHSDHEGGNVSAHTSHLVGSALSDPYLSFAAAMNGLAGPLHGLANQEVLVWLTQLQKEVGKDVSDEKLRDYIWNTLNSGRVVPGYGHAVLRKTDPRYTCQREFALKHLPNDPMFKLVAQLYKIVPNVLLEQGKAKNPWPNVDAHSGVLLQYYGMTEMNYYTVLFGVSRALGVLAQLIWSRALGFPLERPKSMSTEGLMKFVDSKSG
UniProt P12074, whole entry, looked up: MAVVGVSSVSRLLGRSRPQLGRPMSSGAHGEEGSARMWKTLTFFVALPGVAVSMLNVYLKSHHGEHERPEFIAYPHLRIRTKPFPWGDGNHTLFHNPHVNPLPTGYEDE
UniProt P41240: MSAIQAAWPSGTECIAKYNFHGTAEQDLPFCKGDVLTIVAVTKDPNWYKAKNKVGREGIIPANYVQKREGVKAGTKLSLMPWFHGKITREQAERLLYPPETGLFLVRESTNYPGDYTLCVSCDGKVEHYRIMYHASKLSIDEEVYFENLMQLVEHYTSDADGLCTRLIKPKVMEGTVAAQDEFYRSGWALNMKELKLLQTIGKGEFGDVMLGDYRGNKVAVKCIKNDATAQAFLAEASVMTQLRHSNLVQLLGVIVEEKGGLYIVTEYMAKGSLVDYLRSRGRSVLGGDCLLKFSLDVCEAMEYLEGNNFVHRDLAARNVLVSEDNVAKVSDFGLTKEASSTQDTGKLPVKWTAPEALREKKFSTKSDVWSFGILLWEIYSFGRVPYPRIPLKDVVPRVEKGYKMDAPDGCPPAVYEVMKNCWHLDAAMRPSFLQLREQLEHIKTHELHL
UniProt Q9Y646: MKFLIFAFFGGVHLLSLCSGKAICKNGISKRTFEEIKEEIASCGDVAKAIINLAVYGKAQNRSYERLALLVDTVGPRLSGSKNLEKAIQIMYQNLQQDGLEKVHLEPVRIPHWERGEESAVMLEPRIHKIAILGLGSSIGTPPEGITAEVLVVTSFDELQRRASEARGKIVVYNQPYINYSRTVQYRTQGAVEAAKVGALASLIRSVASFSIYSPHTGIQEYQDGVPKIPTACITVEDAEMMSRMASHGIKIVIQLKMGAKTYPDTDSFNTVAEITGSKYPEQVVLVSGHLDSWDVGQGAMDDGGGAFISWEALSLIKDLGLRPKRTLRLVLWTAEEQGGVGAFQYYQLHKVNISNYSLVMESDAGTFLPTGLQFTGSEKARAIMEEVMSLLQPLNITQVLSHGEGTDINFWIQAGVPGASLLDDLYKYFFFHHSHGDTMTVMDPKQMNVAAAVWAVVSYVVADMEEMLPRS
UniProt Q9P021, whole entry, looked up: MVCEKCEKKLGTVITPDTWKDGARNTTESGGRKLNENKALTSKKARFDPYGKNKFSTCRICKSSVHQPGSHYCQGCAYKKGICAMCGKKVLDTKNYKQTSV
UniProt Q9P2I0: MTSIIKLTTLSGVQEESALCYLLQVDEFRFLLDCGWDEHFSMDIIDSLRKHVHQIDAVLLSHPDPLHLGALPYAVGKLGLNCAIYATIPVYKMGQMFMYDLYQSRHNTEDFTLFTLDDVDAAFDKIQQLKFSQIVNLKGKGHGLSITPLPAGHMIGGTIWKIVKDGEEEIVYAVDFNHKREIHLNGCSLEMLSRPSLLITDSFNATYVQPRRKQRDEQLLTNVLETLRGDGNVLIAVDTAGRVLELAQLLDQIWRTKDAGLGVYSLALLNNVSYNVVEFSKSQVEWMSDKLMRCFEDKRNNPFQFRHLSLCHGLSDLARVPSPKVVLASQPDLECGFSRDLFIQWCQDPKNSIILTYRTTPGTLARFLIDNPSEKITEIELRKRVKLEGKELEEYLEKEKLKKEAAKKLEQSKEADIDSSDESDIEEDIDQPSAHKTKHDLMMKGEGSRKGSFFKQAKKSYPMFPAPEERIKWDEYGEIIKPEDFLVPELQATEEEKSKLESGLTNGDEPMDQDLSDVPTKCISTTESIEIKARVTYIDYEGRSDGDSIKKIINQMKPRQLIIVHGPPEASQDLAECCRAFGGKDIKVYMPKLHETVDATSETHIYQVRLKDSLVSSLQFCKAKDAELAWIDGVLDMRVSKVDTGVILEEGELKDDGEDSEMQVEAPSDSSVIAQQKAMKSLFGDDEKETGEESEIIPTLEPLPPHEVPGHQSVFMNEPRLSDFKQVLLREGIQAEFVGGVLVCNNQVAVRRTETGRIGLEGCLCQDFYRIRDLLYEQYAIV
UniProt Q14194, whole entry, looked up: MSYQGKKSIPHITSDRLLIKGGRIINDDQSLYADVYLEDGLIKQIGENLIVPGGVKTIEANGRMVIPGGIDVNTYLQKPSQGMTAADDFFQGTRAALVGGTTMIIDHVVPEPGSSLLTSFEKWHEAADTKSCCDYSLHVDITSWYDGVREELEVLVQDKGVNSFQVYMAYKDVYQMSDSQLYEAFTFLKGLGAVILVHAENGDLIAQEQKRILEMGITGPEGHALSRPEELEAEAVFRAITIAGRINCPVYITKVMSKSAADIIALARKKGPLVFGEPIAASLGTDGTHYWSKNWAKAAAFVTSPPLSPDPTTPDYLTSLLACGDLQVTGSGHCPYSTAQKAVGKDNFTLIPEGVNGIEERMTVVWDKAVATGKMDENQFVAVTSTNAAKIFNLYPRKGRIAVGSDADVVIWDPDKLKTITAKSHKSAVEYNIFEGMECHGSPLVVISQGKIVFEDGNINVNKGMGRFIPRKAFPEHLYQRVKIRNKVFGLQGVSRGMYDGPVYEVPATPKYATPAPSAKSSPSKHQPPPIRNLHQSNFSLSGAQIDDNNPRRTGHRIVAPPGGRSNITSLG
UniProt Q9H0A8, whole entry, looked up: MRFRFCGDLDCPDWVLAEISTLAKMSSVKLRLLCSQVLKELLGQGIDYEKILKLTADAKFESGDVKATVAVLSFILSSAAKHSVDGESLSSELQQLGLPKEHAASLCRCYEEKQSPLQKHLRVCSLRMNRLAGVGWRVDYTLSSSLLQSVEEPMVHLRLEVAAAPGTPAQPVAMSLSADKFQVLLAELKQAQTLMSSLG
UniProt P14406, whole entry, looked up: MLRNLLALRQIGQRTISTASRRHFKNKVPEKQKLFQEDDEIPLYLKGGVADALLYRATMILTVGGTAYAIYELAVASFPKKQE
UniProt P19784, whole entry, looked up: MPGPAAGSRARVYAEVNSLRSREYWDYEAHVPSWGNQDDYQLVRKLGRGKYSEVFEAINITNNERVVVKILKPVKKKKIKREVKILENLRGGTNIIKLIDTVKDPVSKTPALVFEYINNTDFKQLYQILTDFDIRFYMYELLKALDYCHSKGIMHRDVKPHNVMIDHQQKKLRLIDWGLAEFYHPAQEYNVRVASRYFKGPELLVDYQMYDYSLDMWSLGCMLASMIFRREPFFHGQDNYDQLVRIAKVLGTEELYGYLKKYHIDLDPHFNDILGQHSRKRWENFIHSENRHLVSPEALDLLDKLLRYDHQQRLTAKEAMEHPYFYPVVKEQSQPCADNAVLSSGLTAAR
UniProt A4D126: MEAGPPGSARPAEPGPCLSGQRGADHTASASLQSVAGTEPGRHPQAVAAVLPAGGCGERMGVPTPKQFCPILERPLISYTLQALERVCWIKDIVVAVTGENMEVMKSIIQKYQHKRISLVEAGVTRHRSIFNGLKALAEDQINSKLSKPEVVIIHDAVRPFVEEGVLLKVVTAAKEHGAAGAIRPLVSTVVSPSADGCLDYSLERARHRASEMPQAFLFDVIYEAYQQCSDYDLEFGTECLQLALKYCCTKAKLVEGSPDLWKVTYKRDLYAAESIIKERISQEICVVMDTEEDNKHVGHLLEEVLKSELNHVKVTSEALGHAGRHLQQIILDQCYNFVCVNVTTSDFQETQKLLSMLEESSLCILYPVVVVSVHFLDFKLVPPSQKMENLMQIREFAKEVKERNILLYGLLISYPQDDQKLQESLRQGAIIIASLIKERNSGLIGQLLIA
UniProt Q6QEF8, whole entry, looked up: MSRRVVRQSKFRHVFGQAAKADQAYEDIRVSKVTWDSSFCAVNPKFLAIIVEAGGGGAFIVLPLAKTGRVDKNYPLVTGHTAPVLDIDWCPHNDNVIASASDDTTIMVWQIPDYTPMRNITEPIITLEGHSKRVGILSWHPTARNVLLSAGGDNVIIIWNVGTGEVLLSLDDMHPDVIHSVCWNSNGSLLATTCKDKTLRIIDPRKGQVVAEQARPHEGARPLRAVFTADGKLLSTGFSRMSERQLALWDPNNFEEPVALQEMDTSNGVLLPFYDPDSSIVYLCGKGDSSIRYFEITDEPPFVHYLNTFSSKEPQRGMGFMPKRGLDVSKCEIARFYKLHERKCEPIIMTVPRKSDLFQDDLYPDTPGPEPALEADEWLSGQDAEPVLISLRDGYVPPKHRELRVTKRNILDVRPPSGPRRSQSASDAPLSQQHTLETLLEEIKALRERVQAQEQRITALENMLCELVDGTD
UniProt P02511: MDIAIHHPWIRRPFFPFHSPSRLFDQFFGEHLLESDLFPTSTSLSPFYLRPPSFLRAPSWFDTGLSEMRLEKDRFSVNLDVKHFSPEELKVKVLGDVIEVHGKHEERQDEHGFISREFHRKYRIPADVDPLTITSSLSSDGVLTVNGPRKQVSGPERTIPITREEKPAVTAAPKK
UniProt O95639, whole entry, looked up: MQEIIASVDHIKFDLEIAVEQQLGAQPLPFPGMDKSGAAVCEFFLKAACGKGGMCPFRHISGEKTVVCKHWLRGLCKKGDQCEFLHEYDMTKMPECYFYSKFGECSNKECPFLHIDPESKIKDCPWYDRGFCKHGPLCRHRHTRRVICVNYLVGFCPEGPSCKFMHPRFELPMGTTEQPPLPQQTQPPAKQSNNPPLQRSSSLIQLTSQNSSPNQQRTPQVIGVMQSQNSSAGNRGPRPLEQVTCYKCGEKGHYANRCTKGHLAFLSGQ

Tests used:
Test in all cases: log2 fold change, soluble protein after heating vs DMSO (PISA); higher = thermal stabilisation; K562 cells, 10 uM, 30 min; active = over 0.2 and 3.5 SD of the protein, either way, in both replicates (recomputed)
[1] = compound: C#Cc1cccc(Nc2ncnc3cc(OCCOC)c(OCCOC)cc23)c1 [erlotinib]
How it was run: (§1)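 K562 cells at 2×10^6 cells/mL were treated with 10 μM compound for 30 min. Aliquots were heated for 3 min across 48°C-58°C, pooled, and extracted in PBS with 0.5% NP-40 at 4°C; soluble protein was the supernatant after 21,000xg for 90 min. Soluble protein was quantified by TMTpro 16plex LC-MS/MS with channel sums equalised, and reported as log2 fold change in thermal stability against DMSO controls, with values from duplicates.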

[2] = compound: C/C(=N\NC(=O)C1=CC(=CC=C1)S(=O)(=O)N2CCOCC2)/C3=C(C=CC(=C3)Cl)O
How it was run: as §1

[3] = compound: C1=CC(=C(C=C1Cl)C2=NC3=NC=CN=C3C(=N2)NC4=CC=NC=C4)F
How it was run: as §1

[4] = compound: C1=CC(=CC=C1C2=NC3=C(N2)C=C(C=C3)C(=O)N)OC4=CC=C(C=C4)Cl
How it was run: as §1

[5] = compound: C1=CC2=C(C=CC(=C2)/C=C\3/C(=O)NC(=NCC4=CC=CS4)S3)N=C1
How it was run: as §1

[6] = compound: C1=CC2=NC=CN=C2C=C1/C=C/3\C(=O)NC(=O)S3
How it was run: as §1

[7] = compound: C1=CC=C(C=C1)C2=NC(=C(N2)C3=CC=NC=C3)C4=CC(=C(C=C4)Cl)O
How it was run: as §1

[8] = compound: C1=CC=C2C(=C1)C3=NNC4=CC=CC(=C43)C2=O
How it was run: as §1

[9] = compound: C1CCN(C1)C(=O)NC2=CC=CC(=C2)NC3=NC=C(C(=N3)NCCC4=CN=CN4)Br
How it was run: as §1

[10] = compound: C1CN(CCC1(CC2=CC=C(C=C2)Cl)N)C3=NC=NC4=C3C=CN4
How it was run: as §1

Measured: log2 fold change

COPS3 (UniProt Q9UNS2)
inactive: [1] -0.019 | [2] 0.035 | [3] 0.091 | [4] 0.016 | [5] 0.055 | [6] 0.01 | [7] -0.009 | [8] 0.007 | [9] 0.014 | [10] 0.014

CORO7 isoform 3 (UniProt P57737)
inactive: [1] 0.003 | [2] 0.016 | [3] 0.091 | [4] 0.002 | [5] -0.054 | [6] 0.089 | [7] 0.058 | [8] 0.022 | [9] -0.038 | [10] 0.018

COX17 (UniProt Q14061)
inactive: [1] -0.032 | [2] -0.064 | [3] 0.375 | [4] -0.009 | [5] 0.035 | [7] 0.207 | [8] 0.404 | [9] -0.117 | [10] 0

CRYBB1 (UniProt P53674)
inactive: [1] 0.227 | [3] -0.033 | [4] -0.083

COX7B (UniProt P24311)
inactive: [1] -0.022 | [2] 0.058 | [3] 0.109 | [4] 0.006 | [5] -0.081 | [6] 0.057 | [8] -0.009 | [9] 0.085 | [10] 0.016

COQ2 (UniProt Q96H96)
inactive: [1] 0.131 | [3] 0.02 | [4] 0.104

CSE1L (UniProt P55060)
inactive: [1] -0.005 | [2] 0.056 | [3] 0.064 | [4] -0.033 | [5] 0 | [6] 0.052 | [7] 0.012 | [8] -0.044 | [9] 0.028 | [10] -0.04

CS (UniProt O75390)
inactive: [1] 0.028 | [2] 0.035 | [3] 0.033 | [4] 0.002 | [5] 0.051 | [6] -0.009 | [7] 0.072 | [8] -0.064 | [9] -0.015 | [10] 0.035

COPRS (UniProt Q9NQ92)
inactive: [1] 0.041 | [2] -0.006 | [3] 0.108 | [4] 0.045 | [5] 0.016 | [6] 0.067 | [7] -0.129 | [8] -0.003 | [9] 0.012 | [10] 0.045

3 neighbouring entries already listed, for reference:
COQ2 (UniProt Q96H96)
inactive: [1] 0.131 | [3] 0.02 | [4] 0.104

CSE1L (UniProt P55060)
inactive: [1] -0.005 | [2] 0.056 | [3] 0.064 | [4] -0.033 | [5] 0 | [6] 0.052 | [7] 0.012 | [8] -0.044 | [9] 0.028 | [10] -0.04

CS (UniProt O75390)
inactive: [1] 0.028 | [2] 0.035 | [3] 0.033 | [4] 0.002 | [5] 0.051 | [6] -0.009 | [7] 0.072 | [8] -0.064 | [9] -0.015 | [10] 0.035

(next part)

COX6A1 (UniProt P12074)
inactive: [1] -0.088 | [2] -0.018 | [4] 0.144 | [5] -0.089 | [6] -0.034 | [7] -0.054 | [8] 0.156 | [9] 0.023 | [10] -0.022

CSK (UniProt P41240)
inactive: [1] 0.023 | [2] 0.031 | [3] -0.038 | [4] 0.005 | [5] 0.056 | [6] -0.022 | [7] 0.024 | [8] -0.02 | [9] -0.034 | [10] -0.05

CRIP2 isoform 2 (UniProt P52943)
inactive: [1] 0.003 | [2] -0.032 | [3] 0 | [4] 0.112 | [5] -0.07 | [6] -0.045 | [8] -0.071 | [9] -0.013 | [10] 0.122

CPNE3 (UniProt O75131)
inactive: [1] -0.025 | [2] 0.011 | [3] 0.073 | [4] 0 | [5] -0.021 | [6] -0.007 | [7] 0.03 | [8] -0.05 | [9] 0.029 | [10] 0.227

CPQ (UniProt Q9Y646)
inactive: [1] 0.013 | [2] 0.002 | [3] 0.051 | [4] 0 | [5] 0.05 | [6] 0.004 | [7] 0.07 | [8] 0 | [9] -0.027 | [10] 0.125

CRIPT (UniProt Q9P021)
inactive: [1] -0.003 | [2] 0.007 | [3] -0.028 | [4] 0.038 | [5] 0.007 | [6] 0.02 | [7] -0.065 | [8] -0.069 | [9] -0.026 | [10] -0.029

CPSF2 (UniProt Q9P2I0)
inactive: [1] -0.01 | [2] 0.035 | [3] -0.052 | [4] 0.046 | [5] -0.004 | [6] 0.076 | [7] -0.125 | [8] 0.009 | [9] -0.018 | [10] -0.034

CRMP1 isoform 2 (UniProt Q14194)
inactive: [1] -0.1 | [2] -0.273 | [4] 0.009 | [5] 0.101 | [6] -0.011 | [8] -0.037 | [9] 0.088 | [10] -0.014

CRKL (UniProt P46109)
inactive: [1] -0.012 | [2] -0.002 | [3] 0.014 | [4] -0.02 | [5] 0.047 | [6] 0.006 | [7] -0.069 | [8] -0.017 | [9] 0.017 | [10] 0.026

CRYZL1 (UniProt O95825)
inactive: [1] 0.009 | [2] 0.02 | [3] 0.044 | [4] 0.015 | [5] -0.022 | [6] 0.012 | [7] 0.004 | [8] -0.018 | [9] -0.003 | [10] 0.029

COMMD4 (UniProt Q9H0A8)
inactive: [1] 0.041 | [2] 0.139 | [3] 0.055 | [4] 0.057 | [5] 0.013 | [6] 0.026 | [7] 0.046 | [8] 0.121 | [9] -0.116 | [10] -0.029

COX7A2 (UniProt P14406)
inactive: [1] 0.004 | [2] -0.029 | [3] 0.119 | [4] -0.027 | [5] 0.121 | [6] 0.056 | [7] 0.004 | [8] -0.018 | [9] -0.012 | [10] 0.044

CSNK2A2 (UniProt P19784)
active: [5] 0.22 | [6] 0.591
inactive: [1] -0.053 | [2] -0.08 | [3] 0.046 | [4] -0.006 | [7] -0.038 | [8] 0.185 | [9] 0.034 | [10] -0.047

CRPPA (UniProt A4D126)
inactive: [1] 0.004 | [2] 0.02 | [3] 0.044 | [4] 0.008 | [5] 0.012 | [6] 0.039 | [7] -0.023 | [8] -0.003 | [9] -0.071 | [10] 0.03

CPSF3 (UniProt Q9UKF6)
inactive: [1] 0.006 | [2] 0.104 | [3] 0.028 | [4] 0 | [5] -0.003 | [6] 0.048 | [7] 0 | [8] -0.022 | [9] -0.005 | [10] -0.011

CPNE7 (UniProt Q9UBL6)
inactive: [1] 0.014 | [2] 0.055 | [4] 0.022 | [5] 0.103 | [6] 0.006 | [7] -0.023 | [8] 0.054 | [9] 0.021 | [10] 0.018

COMMD10 (UniProt Q9Y6G5)
inactive: [1] 0 | [2] 0.093 | [3] 0.026 | [4] 0.034 | [5] 0.064 | [6] 0.011 | [7] -0.02 | [8] -0.014 | [9] -0.079 | [10] -0.048

COX5A (UniProt P20674)
inactive: [1] -0.005 | [2] -0.05 | [3] 0.104 | [4] 0.052 | [5] 0.045 | [6] 0.016 | [7] 0.183 | [8] 0.051 | [9] -0.026 | [10] -0.081

CS (UniProt F8VU34)
inactive: [6] 0.06

CORO6 isoform 5 (UniProt Q6QEF8)
inactive: [2] 0.001 | [3] 0.027 | [5] 0.124 | [8] 0.295 | [9] -0.242 | [10] -0.018

COL3A1 (UniProt P02461)
inactive: [1] -0.022 | [3] 0.019 | [4] -0.012 | [7] -0.001 | [9] -0.044 | [10] 0.21

CRYAB (UniProt P02511)
inactive: [2] -0.03 | [3] -0.081 | [5] 0.159 | [8] 0.077

CPSF4 (UniProt O95639)
inactive: [2] 0.006 | [5] -0.11 | [6] 0.135 | [7] 0.217 | [8] -0.146
